According to article PMC6242839 (Nature Communications, 2018):

Key:
[1] = for change in π of preformed POPE monolayer: monolayer at ~ 25 mN m^−1, compound 0.2 µM; for maximum values of Δπ: preformed POPE monolayers at π ~ 25 mN m^−1, 0.1 then 0.2 µM, n = 3
[2] = compound 50 μM, MLVs POPE/Soy:PE 3:1, control 35.3 ± 0.6 °C

| Compound | change in π of preformed POPE monolayer [1] [mN m^−1] | maximum values of Δπ [1] [mN m^−1] | lamellar to hexagonal phase transition temperature (TH) of the PE binary mixture [2] [°C] | drop in surface pressure π to attain the same A/lipid (compression isotherm) ([1]; POPE monolayer after injection of compound, 0.2 µM) [mN m^−1] |
| --- | --- | --- | --- | --- |
| CCCCCCCCCCCCO[C@@H]1C[C@@H](O)[C@H](O)[C@@H](CO)O1 [Compound 13] | < 0.5 | 0.15 ± 0.06 | 35.2 ± 1.1 | – |
| CCCCCCCCCCCCO[C@H]1C[C@H](O)[C@@H](O)[C@H](C)O1 [Compound 1] | ~3 | 2.61 ± 0.25 | 32.2 ± 0.8 | ≤ 15 |
